In US20200223903A1 (NEOMATRIX THERAPEUTICS, published 2020):
These are yes or no findings as the source states them, for the method shown. Some results given as binding are weak or reduced against the parent protein; the word gives no strength.

Sequences of proteins named here, by UniProt entry; tags and fusion partners are left off. Residues count along the entry.
UniProt P01127, residues 82-190: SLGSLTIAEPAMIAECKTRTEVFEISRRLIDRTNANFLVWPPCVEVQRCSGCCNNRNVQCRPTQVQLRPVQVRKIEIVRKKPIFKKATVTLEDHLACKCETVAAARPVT
UniProt P01137, residues 279-390: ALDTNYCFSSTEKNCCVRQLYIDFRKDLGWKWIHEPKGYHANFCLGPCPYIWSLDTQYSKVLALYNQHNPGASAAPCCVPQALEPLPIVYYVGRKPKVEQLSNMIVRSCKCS

Key:
[1] = molecular target: platelet-derived growth factor-BB (UniProt P01127); assay: SPR (Biacore T200), real time interaction of peptide with growth factor
[2] = molecular target: Transforming Growth Factor-Beta1 (UniProt P01137); assay: as above

| Binder | binding [1] | binding [2] |
| --- | --- | --- |
| HISKYILRWRPKNSV (Found as an elastase digestion product of FNIII1-C and then synthesized; Linear) [P46 (HISKYILRWRPKNSV), fibronectin-derived peptide] | binds | binds |
| HIGKYGLRWRPKGSV (cyclic: N terminus amino acid bound to the C terminus amino acid) [cNP8, cyclic …, elastase-resistant engineered peptide derived from P46] | binds | binds |
